The source of these data is PubChem BioAssay AID493014 (National Center for Advancing Translational Sciences (NCATS), 2011).

The list shows a part of the results. Shown are side measurements of this screen, not its main read-out; they come without a call. Most of these compounds were active or inconclusive in the main read-out, so they are no random draw. Potencies come from curve fits of mixed quality, noted in brackets.

The assay in a line: qHTS Assay to Find Inhibitors of Chronic Active B-Cell Receptor Signaling. The note with it: ABC-DLBCL IkBa-CBG/CBR reporter, luminescence ratio (green luciferase fused to IkBa over red control in TMD8 lymphoma cells), 4 h. An excerpt: NIH Molecular Libraries Probe Production Network [MLPCN] NIH Chemical Genomics Center [NCGC] MLPCN Grant: 1 R03 DA031086-01A1 PI Name: Dr. R. Eric Davis NCGC Assay Overview: Diffuse large B-cell lymphoma (DLBCL) is the most common category of non-Hodgkin lymphoma, with ~20,000 new cases per year in the United States. DLBCL should be regarded as a collection of different neoplasms. Microarray gene expression analysis has defined two principal types of DLBCL, named for their similarity to normal B cell stages or activation states: a germinal center B-cell (GCB) type, and an activated B-cell (ABC) type. In ABC-DLBCL, a constitutive high-level activity of the NF-kappaB family of transcription factors has been observed (1) and NF-kappaB target genes are more highly expressed in ABC primary tumors than in GCB tumors. Functional studies have shown a constitutive high-level activity of the IkappaB (inhibitor of kappa-B) kinase (IKK) complex. […] Further analysis of DLBCL primary tumors for NF-kappaB target gene expression imply that although CARD11 is required for constitutive IKK activity in all ABC-DLBCL lines, mutations in CARD11 may be the root cause of IKK activation only in lines or tumors with such mutations. In other words, CARD11 mutations may explain NF-kappaB activation in only 10% of ABC-DLBCL cases. […] This process has been termed 'chronic active BCR signaling' (CABS). The goal of this screen is to find small-molecule inhibitors of the CABS pathway found in ABC-DLBCL lines using a cell-based assay that measures IkappaBalpa stability, which has already been extensively validated in the OCI-Ly3 line (PubChem AID:445; REF: 4). […] The assay uses green (CBG68) and red (CBR) emitting beetle luciferases [Chroma-GloTM developed by Promega Corp.] where the green luciferase is fused to IkappaBalpha and the red luciferase is present in its native state. Both luciferase genes are stably present in the TMD8 human ABC DLBCL cell line, but their expression is under the control of tetracycline-inducible promoters. Following the addition of doxycycline to induce expression of the luciferases, the green luminescence in control cultures rises only slowly because the CBG fusion partner IkappaBalpha is targeted by IKK activity for rapid degradation. In contrast, green luminescence rises rapidly in the presence of proteasome inhibitors or IKK inhibitors. The rise in red luminescence of CBR is not affected by proteasome or IKK inhibitors, and serves as normalization for cell number and nonspecific effects. Compounds were screened as a concentration-titration series that ranged from 46 uM to 3 nM.
NCGC Assay Protocol Summary: Cells were seeded in 1536-well plates at 5000 cells/4uL in IMDM medium containing 0.5% FBS, w/o phenol red, 1% penicillin/streptomycin. Then, 23 nL of compounds or DMSO were delivered to each well using a pin tool. One uL 20ng/ml doxycycline was then dispensed into white solid 1536-well plates and the plates were incubated at 37C/5% C02 in a cell incubator for 4 hrs. Then 4 uL luminescent substrate mix (in-house prepared: 150 mM Tris-Cl, pH 7.6, 3 mM MgCl2, 1% Triton X-100, 5 mM DTT, 0.2 mM CoA, 0.15 mM ATP, 5 mM D-luciferin, final concentrations) was added to each well. The plate was incubated at r.t. for 10-15 min. The plates were measured on a ViewLux plate reader for green luminescence (540/20 nm filter) and red luminescence (618/8 nm filter). The green and red luminescent signals were corrected for red and green luminescence filter overlap using previously determined filter calibration constants (determined using the procedure outlined in the Promega Technical Manual; REF 4). The %Activity was determined from the ratio of corrected green/red luminescent values. MG132 were used as control. […] Red luminescent %Activity was normalized to the difference between red luminesence in basal cells (0%Activity) and zero luminescence (-100% Activity). […]

The mark [1] stands for this setting: measured here: CBR red luminescence, cell number.
Setting [2] is: measured here: IkBa-CBG green luminescence.

With `COC(=O)C1=C(C)NC2=C(C(=O)CCC2)C1c1cccs1` (centres undefined), the AC50 under setting [1] was 32.6 µM [falling, single point].
`COC(=O)Cc1csc(NC(=O)c2ccc3ncsc3c2)n1`: the half-maximal activity concentration (AC50) under setting [1] was 8.2 µM [falling, partial curve].
With `Cc1csc(NC(=O)C(C)Oc2ccc(Cl)cc2C)n1` (centres undefined), under setting [1], the AC50 was 32.6 µM [falling, single point].
Still for that read-out and setting: for `O=C(Nc1nc(-c2ccccn2)cs1)c1ncc(Cl)c(Cl)c1Cl` the value was 17.8 µM [falling, single point].
As to `Cc1cc(NC(=O)c2cc(C)on2)n(-c2ccccc2)n1`, the AC50 under setting [1] is 0.0164 µM [rising, full curve, poor fit].
With `CC(=O)Nc1ccc(SCC(=O)c2cc(C)n(-c3ccccc3F)c2C)cc1`, the AC50 under setting [1] was 32.6 µM [falling, single point].
As to `CCCc1[nH]nc2c1C(c1ccoc1)C(C#N)=C(N)O2` (centres undefined), the AC50 under setting [2] was 29.1 µM [falling, single point].
Regarding `C/C(=N\NC(=O)c1nnn(-c2nonc2N)c1-c1ccc(Cl)c(Cl)c1)c1ccncc1`, the AC50 is, setting by setting: under setting [1], 25.1 µM [falling, single point]; under setting [2], 35.5 µM [rising, partial curve, poor fit].
As to `CCn1c(SCC(=O)Nc2sc(C)c(C)c2C#N)nnc1C(C)C`, the AC50 under setting [1] was 29.1 µM [falling, single point].
Still for that read-out and setting: next, `CCCCCn1c(SC(C)C(C)=O)nc2c1c(=O)[nH]c(=O)n2C` (centres undefined): 29.1 µM [rising, single point].
For the molecule `CCOC(=O)c1c(NC(=O)CSc2cccc[n+]2[O-])sc(C(=O)Nc2ccccc2)c1C`, the AC50 under setting [2] was 35.5 µM [falling, partial curve, poor fit].
`COc1ccc(-c2nsc(SCC(=O)NCC3CCCO3)n2)cc1` (centres undefined): the AC50 under setting [1] was 6.31 µM [rising, full curve, poor fit].
Take `C[C@H](CO)N1C[C@H](C)[C@@H](CN(C)Cc2ccc(Oc3ccccc3)cc2)Oc2c(NC(=O)C3CC3)cccc2C1=O`: under setting [1], the AC50 is 25.9 µM [falling, partial curve, poor fit].
Turning to `CCCC12CN3CCN(CC(C3)/C1=N\NC(=O)c1ccc(F)cc1)C2`, the AC50 under setting [1] is 7.08 µM [falling, partial curve].
Regarding `CCOC(=O)c1cc2c(C)n(-c3ccc(C)cc3)c(C)c2ccc1=O`, the AC50 under setting [1] is 10 µM [falling, partial curve, poor fit].
On to `NC(=O)c1ccc[n+]([C@H]2O[C@@H](COP(=O)([O-])OP(=O)(O)OC[C@H]3O[C@@H](n4cnc5c(N)ncnc54)[C@H](O)[C@@H]3O)[C@H](O)[C@@H]2O)c1`, for which the AC50 under setting [1] was 2.59 µM [rising, full curve, poor fit] and the AC50 under setting [2] is 16.4 µM [falling, partial curve].
Consider `CCOc1ccc(/C=N\NC(=O)c2c(C)nc3cc(C)ccn23)cc1`, for which the AC50 under setting [1] is 35.5 µM [rising, single point].
In the case of `CCOC(=O)CSc1nnc(CNC(=O)c2cccs2)n1CCc1ccccc1`, under setting [1], the AC50 was 8.91 µM [falling, partial curve, poor fit].
Regarding `O=C(O)c1cc(-c2ccc(/C=C3\NC(=O)N(c4ccccc4)C3=O)o2)ccc1Cl`, under setting [1], the AC50 is 5.62 µM [rising, single point].
Regarding `CSCCC(NS(=O)(=O)c1ccc2c(c1)oc(=O)n2C)C(=O)Nc1ccc(F)c(Cl)c1` (centres undefined), the AC50 under setting [1] is 0.631 µM [falling, partial curve, poor fit].
For `CC1CCC2(CC1)C(Nc1cccc(Cl)c1)=NC(=S)N2CC#N` (centres undefined), under setting [1], the AC50 is 29.1 µM [falling, single point].
As for `COc1ccccc1C(=O)Nc1nnc(S(=O)(=O)N2CCOCC2)s1`, under setting [1], the AC50 was 2.51 µM [rising, partial curve, poor fit].
In the case of `O=C(CSCc1ccccc1Cl)Nc1ccc(C(=O)O)cc1`, the AC50 under setting [1] was 3.55 µM [falling, full curve].
Still for that read-out and setting: next, `O=C(CN1C(=O)S/C(=C/c2cc(Br)cs2)C1=O)N1CCOCC1`: 0.231 µM [falling, full curve].
For `CCc1cc2c3c(c1)C1(C(=O)N3C(C)(C)CC2C)C(C#N)=C(N)N2C(=C1C#N)Nc1ccccc12` (centres undefined), the AC50 under setting [1] was 29.1 µM [falling, single point].
For `O=C(N/N=C\c1ccccn1)c1ccccc1O`, the AC50 runs as follows: under setting [1], 10 µM [falling, partial curve]; under setting [2], 35.5 µM [falling, single point].
Consider `Cc1ccc(S(=O)(=O)N(C)C)cc1NC(=O)C(C)OC(=O)c1cc[n+]([O-])cc1` (centres undefined), for which the AC50 under setting [1] was 1.16 µM [rising, full curve, poor fit].
The same measure, in the same setting: next, `CC(=O)NC(=S)Nc1ccccc1F`: 8.91 µM [falling, partial curve, poor fit].
Still for that read-out and setting: next, `CCOc1cccc(/C=N/NC(=O)c2ccc3c(c2)OCCO3)c1O`: 7.08 µM [falling, partial curve].
With `O=C(Oc1c(Cl)cc(Cl)c2cccnc12)c1cccc([N+](=O)[O-])c1`, under setting [2], the AC50 is 8.2 µM [falling, partial curve, poor fit].
`Cc1cc(C)nc(SCCC(=O)N(C)C)n1`: the AC50 under setting [1] was 29.1 µM [rising, single point].
With `Cc1cccc(OCc2nc(-c3ccc(-n4cccc4)cc3)no2)c1`, the AC50 under setting [1] was 8.2 µM [rising, partial curve, poor fit].
On the same count and under the same terms, next, `CCn1nc(C)c(CNC(=O)C2CCC(=O)N(CCc3ccc(OC)cc3)C2)c1C` (centres undefined): 5.62 µM [falling, single point]; `CCCOc1ccc(C(C(=O)OCCN(CC)CC)c2ccccc2)cc1` (centres undefined): 29.1 µM [falling, single point].
Take `N=C1C(c2nc(-c3ccc(Cl)cc3)cs2)=C(O)CN1CCCN1CCOCC1`: the AC50 under setting [1] was 8.2 µM [rising, partial curve, poor fit].
As to `CC(C)=CCC/C(C)=C/CNC(=O)C[C@H]1C[C@H](C(=O)N2CCCCC2)[C@@]2(CCc3ccccc3)c3[nH]c4cc(CCC(=O)N(C)C)ccc4c3CCN2C1=O`, under setting [1], the AC50 was 23.1 µM [rising, partial curve].
On the same count and under the same terms, next, `O=C(Nc1ccc(Br)cc1)C1CC=CCC1C(=O)OCC1CCCO1` (centres undefined): 1.84 µM [rising, partial curve, poor fit].
Take `O=C(CCN1C(=O)/C(=C/c2cccs2)SC1=S)Nc1ccccc1O`: the AC50 under setting [1] is 3.98 µM [falling, partial curve, poor fit].
Regarding `Fc1cc(F)c2nc(Nc3nc4cc5c(cc4s3)OCO5)sc2c1`, the AC50 under setting [1] was 0.13 µM [rising, full curve].
As to `Cc1cccc(C(=O)NNC(=O)/C=C/C(=O)O)c1`, the AC50 under setting [1] is 10 µM [falling, partial curve, poor fit].
With `Cc1ccc(SCCC(=O)N2CCOCC2)cc1`, the AC50 under setting [1] is 8.2 µM [falling, partial curve].
On the same count and under the same terms, next, `COc1ccc(NC(=O)C2CCCN2c2ccc(OC)c(OC)c2)cc1OC` (centres undefined): 14.1 µM [rising, partial curve]; `Cc1cc(/C=C2\SC(=O)NC2=O)c(C)n1-c1ccc(N2CCOCC2)cc1`: 35.5 µM [rising, single point].
Take `O=[N+]([O-])c1ccc(C2CC(c3ccccc3)=Nc3ccccc3S2)cc1` (centres undefined): the AC50 under setting [1] was 12.6 µM [rising, partial curve] and the AC50 under setting [2] was 25.1 µM [falling, single point].
For `CC(=O)c1ccc(NC(=O)CCCN2C(=O)/C(=C/C(C)=C/c3ccccc3)SC2=S)cc1`, the AC50 under setting [1] is 23.1 µM [falling, single point].
The same measure, in the same setting: next, `Cc1ncc(CN2CCC(C(=O)Nc3ccc(-n4cccn4)cc3)CC2)s1`: 0.631 µM [rising, full curve, poor fit]; `CCc1nc(SCC(=O)Nc2ccccc2)c2c(=O)n(C)c(=O)n(C)c2n1`: 0.794 µM [rising, full curve].
As for `COc1ccc(C(=O)NCc2c(C)nn(Cc3ccccc3)c2C)cc1S(=O)(=O)N1CCOCC1`, under setting [1], the AC50 was 3.66 µM [rising, full curve, poor fit].
For `COc1ccc2c(=O)c(-c3ccccc3)coc2c1`, under setting [1], the AC50 is 10 µM [falling, partial curve].
`O=C(c1cccc(C(F)(F)F)c1)N1CCc2c([nH]c3ccccc23)C1C(F)(F)F` (centres undefined): the AC50 under setting [1] is 7.08 µM [falling, full curve, poor fit].
With `S=C(NCc1ccccc1)NN1CCOCC1`, under setting [1], the AC50 was 12.6 µM [rising, partial curve, poor fit].
Turning to `COc1ccc(/C=N/NC(=O)CNC(=O)/C=C/c2ccco2)cc1OC`, the AC50 under setting [1] was 14.1 µM [rising, partial curve, poor fit].
With `CCC1=C(OC(=O)N(CC)CC)N2C(=O)OC(=NCc3ccccc3)[C@]2(C)[C@H]2C1=CC[C@H]1C(=O)N(CC(=O)OC)C(=O)[C@H]12`, the AC50 under setting [1] is 6.31 µM [falling, single point].
Still for that read-out and setting: next, `CCOC(=O)C1=C(C)N(c2ccc(C)cc2)C(=O)/C1=C\c1ccc(O)c(OC)c1`: 15.8 µM [falling, single point]; `CCc1ccc2oc(-c3ccc(OC)cc3)cc(=Nc3cccc(C(=O)O)c3)c2c1`: 35.5 µM [falling, single point].
`COC(=O)CCC(=O)Nc1sc2c(c1C#N)CCCC2`: the concentration at half-maximal activity (AC50) under setting [2] was 15.8 µM [falling, single point].
For the molecule `CCOC(=O)Cc1nc2nc(C)cc(C)n2n1`, the AC50 under setting [1] is 14.1 µM [rising, partial curve, poor fit].
`Cc1cc(NCCCn2ccnc2)n2nc(-c3ccc(F)cc3)cc2n1`: the AC50 under setting [1] is 10.3 µM [falling, partial curve, poor fit].
Consider `CC(C)C(=O)NCCc1nc2ccccc2n1C`, for which the AC50 under setting [1] is 0.651 µM [falling, full curve].
With `O=C(NCc1ccco1)C(c1ccccc1)N(C(=O)Cc1cccs1)c1ccccc1F` (centres undefined), the AC50 under setting [1] is 11.2 µM [falling, partial curve, poor fit].
